Measured values reported in patent publication US20210379040A1, “COMBINATION TREATMENT OF LIVER DISORDERS” (Terns Pharmaceuticals, Inc., priority 2020, published 2021).

Test system: liver gene expression (lipid metabolism and fatty acid transport genes)
Assay: Rat CDHFD+NaNO2 NASH model: liver whole transcriptome RNAseq (DEGs)
Format: in vivo, male Wistar rats
Details: CDHFD+NaNO2 rats, 8 weeks; Compound 1 3 mg/kg, Compound 2 25 mg/kg; vs vehicle NASH control; adjusted p-value <0.01, fold-change ≥1.5-fold
Method: Animal handling: After arrival, the rats were left for a 2-week acclimation period, during which they were accustomed to the animal facility staff and trained on the procedure of oral gavage. […] Rats were then treated with test compounds for an additional 8 weeks while on CDHFD. […] Final Sacrifice: Half of the animals of each treatment group were terminated on day 84. The other half of the animals in each group were terminated on the following day, day 85. On the day of sacrifice the animals were fasted for 2 hours and received a final treatment with the respective test substance. After the final compound treatment, the animals had no more access to food until sacrifice. At 4 hours after the last administration all animals were sacrificed and livers were sampled for further analysis. Sampling and analysis: Small liver pieces were harvested into RNAlater (Thermo Fisher Scientific Dreieich Germany) and stored at −20° C. prior to RNA sequencing (RNAseq) at MedGenome Inc. RNAseq analysis was performed on liver tissue by Illumina sequencing using standard methodologies. Briefly, RNAseq libraries (n=5 per group) were generated using Illumina Truseq stranded mRNA kits and sequencing was performed on a NovaSeq 6000 sequencer. Alignment was performed using STAR (v2.7.3a) aligner and reads mapping to ribosomal and mitochondrial genome were removed prior to alignment. Raw read counts were estimated using HTSeq (v0.11.1) and normalized using DESeq2 (v2.22.2). Differentially expressed genes (DEGs) were determined using DESeq2 (R Bioconductor package). RESULTS: The choline-deficient, high-fat diet (CDHFD) is commonly used to induce a NASH-like phenotype in rodent species. In addition, induction of liver fibrosis by intraperitoneal (IP) injections of sodium nitrite (NaNO2) in CDHFD rats can be used to model advanced NASH disease. […] In this model, male Wistar rats were fed a CDHFD for 4 weeks to induce disease prior to daily oral drug and triweekly IP NaNO2 treatment.

SMILES | Down DEGs | Total DEGs | Up DEGs
Cn1cc(C(=O)O)c2ccc(N3CCC(OCc4c(-c5c(Cl)cccc5Cl)noc4C4CC4)CC3)cc21 [Compound 1] | 118 | 309 | 191
COC1CCN(c2ncc(OC/C(=C/F)CN)cn2)CC1 [Compound 2] | 641 |  | 206
